PubChem BioAssay AID1259254 | NCATS | 2017

- Screen: 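Finding genes that stop cells copying their DNA twice in one cycle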 (primary screen)
- System: human HCT116 colorectal cancer cells
- Knock-down reagent: single siRNA against human genes
- Time to read-out: 3 days
- Detection: 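Imaged Hoechst DNA stain sorts each cell into a cycle phase by DNA amount; per plate, G2 fraction set to 0% for non-targeting and 100% for GMNN siRNA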
- Reading the numbers: G2 robust z-score and G2 cells, % of GMNN control: higher = more G2 cells, more excess DNA replication
- Call rule: 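Active siRNAs have a G2 robust z of 5 or more median absolute deviations over the median, which in these data means about 38% or higher of GMNN control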
The whole screen tested about 59,000 reagents; shown is an unselected part. About 1,550 of all reagents (2.6%) count as active. 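G2 share is only a proxy for re-replication; each gene was hit by three separate siRNAs, and active genes were retested.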 Unmarked entries are inactive. The numbers tell different reagents against one gene apart. Further read-outs or replicates are left out here. Not given: the amount of reagent.

ZNF439 #1 | G2 robust z-score = -0.174; G2 cells, % of GMNN control = 1.74
ZNF439 #2 | G2 robust z-score = 1.44; G2 cells, % of GMNN control = 13.1
ZNF439 #3 | G2 robust z-score = -0.34; G2 cells, % of GMNN control = 0.579
ATRNL1 #1 | G2 robust z-score = -0.743; G2 cells, % of GMNN control = -2.26
ATRNL1 #2 | G2 robust z-score = 0.418; G2 cells, % of GMNN control = 5.91
ATRNL1 #3 | G2 robust z-score = 1.1; G2 cells, % of GMNN control = 10.7
ELOVL7 #1 | G2 robust z-score = 1.63; G2 cells, % of GMNN control = 14.4
ELOVL7 #2 | G2 robust z-score = 1.76; G2 cells, % of GMNN control = 15.3
ELOVL7 #3 | G2 robust z-score = 0.0529; G2 cells, % of GMNN control = 3.34
GPER1 #1 | G2 robust z-score = -1.25; G2 cells, % of GMNN control = -5.85
GPER1 #2 | G2 robust z-score = 1.39; G2 cells, % of GMNN control = 12.8
GPER1 #3 | G2 robust z-score = 1.06; G2 cells, % of GMNN control = 10.4
ID4 #1 | G2 robust z-score = -0.358; G2 cells, % of GMNN control = 0.448
ID4 #2 | G2 robust z-score = 0.326; G2 cells, % of GMNN control = 5.26
ID4 #3 | G2 robust z-score = -0.47; G2 cells, % of GMNN control = -0.342
HEMK1 #1 | G2 robust z-score = -0.641; G2 cells, % of GMNN control = -1.54
HEMK1 #2 | G2 robust z-score = 0.147; G2 cells, % of GMNN control = 4
HEMK1 #3 | G2 robust z-score = -1.17; G2 cells, % of GMNN control = -5.25
CCDC110 #1 | G2 robust z-score = -0.0676; G2 cells, % of GMNN control = 2.49
CCDC110 #2 | G2 robust z-score = -0.356; G2 cells, % of GMNN control = 0.463
CCDC110 #3 | G2 robust z-score = 0.47; G2 cells, % of GMNN control = 6.28
SLC31A2 #1 | G2 robust z-score = 2.81; G2 cells, % of GMNN control = 22.7
SLC31A2 #2 | G2 robust z-score = 0.0251; G2 cells, % of GMNN control = 3.14
SLC31A2 #3 | G2 robust z-score = 2.12; G2 cells, % of GMNN control = 17.9
LOC730378 (retired record) #1 | G2 robust z-score = 0.809; G2 cells, % of GMNN control = 8.66
LOC730378 (retired record) #2 | G2 robust z-score = -1.28; G2 cells, % of GMNN control = -6.05
LOC730378 (retired record) #3 | G2 robust z-score = -0.721; G2 cells, % of GMNN control = -2.1
TBXA2R #1 | G2 robust z-score = -1.23; G2 cells, % of GMNN control = -5.72
TBXA2R #2 | G2 robust z-score = -0.172; G2 cells, % of GMNN control = 1.75
TBXA2R #3 | G2 robust z-score = 6.9 (active); G2 cells, % of GMNN control = 51.5

Called active (from the list above):
TBXA2R #3 | G2 robust z-score = 6.9 (active); G2 cells, % of GMNN control = 51.5
